Measurements reported in publication PMC8517123, “Functional Interaction Between Caveolin 1 and LRRC8-Mediated Volume-Regulated Anion Channel” (Frontiers in Physiology, 2021).
No constants are given. Whether binding was seen depends on the method and setting. In cells and extracts the contact can be indirect. Some entries that bind do so weakly or less than the wild type.

Sequences of proteins named here, by UniProt entry; tags and fusion partners are left off.
UniProt Q8IWT6: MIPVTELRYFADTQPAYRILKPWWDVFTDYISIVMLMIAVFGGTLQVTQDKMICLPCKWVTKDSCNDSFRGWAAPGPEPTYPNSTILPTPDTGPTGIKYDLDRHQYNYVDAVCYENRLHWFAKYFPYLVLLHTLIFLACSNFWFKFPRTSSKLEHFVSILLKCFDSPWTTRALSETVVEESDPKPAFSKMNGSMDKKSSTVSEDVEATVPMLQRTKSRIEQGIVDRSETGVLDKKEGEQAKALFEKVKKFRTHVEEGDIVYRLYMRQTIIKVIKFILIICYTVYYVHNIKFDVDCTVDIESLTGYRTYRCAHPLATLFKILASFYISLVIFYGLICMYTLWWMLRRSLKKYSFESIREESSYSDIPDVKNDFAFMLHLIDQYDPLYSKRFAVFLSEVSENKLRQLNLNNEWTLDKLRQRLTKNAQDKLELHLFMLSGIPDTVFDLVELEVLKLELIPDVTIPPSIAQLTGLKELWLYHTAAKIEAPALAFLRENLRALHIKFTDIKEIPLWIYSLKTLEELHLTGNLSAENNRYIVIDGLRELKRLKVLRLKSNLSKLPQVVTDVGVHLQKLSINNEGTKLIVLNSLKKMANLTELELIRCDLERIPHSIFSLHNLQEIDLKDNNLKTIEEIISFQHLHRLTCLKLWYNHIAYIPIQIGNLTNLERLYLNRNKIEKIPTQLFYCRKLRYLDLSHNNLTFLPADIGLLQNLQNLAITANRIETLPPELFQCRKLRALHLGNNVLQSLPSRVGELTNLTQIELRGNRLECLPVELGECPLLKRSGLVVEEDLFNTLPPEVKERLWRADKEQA

Target: Leucine-rich repeat-containing 8A (human (endogenous in HEK 293)) (UniProt Q8IWT6)
Assay: co-IP; endogenous proteins; HEK 293 cells exposed to isotonic (300 mOsm/Kg) or hypotonic (255 mOsm/Kg) solution for 7 min at 37°C; lysis in 1% Triton X-100; 100-500 μg protein with 2-4 μg anti-Cav1 or anti-LRRC8A antibody at 4°C overnight, protein A sepharose; western blot

B1: Caveolin 1 (natural protein, human (endogenous in HEK 293), UniProt Q03135 1-178, looked up)
chain: MSGGKYVDSEGHLYTVPIREQGNIYKPNNKAMADELSEKQVYDAHTKEIDLVNRDPKHLNDDVVKIDFEDVIAEPEGTHSFDGIWKASFTTFTVTKYWFYRLLSALFGIPMALIWGIYFAILSFLHIWAVVPCIKSFLIEIQCISRVYSIYVHTVCDPLFEAVGKIFSNVRINLQKEI
notes: Caveolin 1, endogenous in HEK 293 cells; also called Cav1; source: endogenous, HEK 293 lysate (1% Triton X-100)
- binding: binds
